Data taken from PMC3357424.
These are yes or no findings as the source states them, for the method shown. Binding seen in cells or lysates may run through a third protein. Binding calls can cover weak binding; strength is not graded here.

Biological target: integrin α5β1 (human (endogenous in U87))
Assay: co-IP; ProFound Mammalian Co-Immunoprecipitation Kit (Pierce); U87 cells lysed with M-per reagent; lysates incubated with mouse anti-human βig-h3 mAb, or anti-α5 mAb (P1D6) and anti-β1 mAb (3S3); bound proteins collected on coupling gel, eluted and blotted for integrin α5β1 or βig-h3; both directions

B1: Transforming growth factor (TGF)-β-inducible gene-h3 (βig-h3) (protein, UniProt Q15582 24-683)
chain: GPAKSPYQLVLQHSRLRGRQHGPNVCAVQKVIGTNRKYFTNCKQWYQRKICGKSTVISYECCPGYEKVPGEKGCPAALPLSNLYETLGVVGSTTTQLYTDRTEKLRPEMEGPGSFTIFAPSNEAWASLPAEVLDSLVSNVNIELLNALRYHMVGRRVLTDELKHGMTLTSMYQNSNIQIHHYPNGIVTVNCARLLKADHHATNGVVHLIDKVISTITNNIQQIIEIEDTFETLRAAVAASGLNTMLEGNGQYTLLAPTNEAFEKIPSETLNRILGDPEALRDLLNNHILKSAMCAEAIVAGLSVETLEGTTLEVGCSGDMLTINGKAIISNKDILATNGVIHYIDELLIPDSAKTLFELAAESDVSTAIDLFRQAGLGNHLSGSERLTLLAPLNSVFKDGTPPIDAHTRNLLRNHIIKDQLASKYLYHGQTLETLGGKKLRVFVYRNSLCIENSCIAAHDKRGRYGTLFTMDRVLTPPMGTVMDVLKGDNRFSMLVAAIQSAGLTETLNREGVYTVFAPTNEAFRALPPRERSRLLGDAKELANILKYHIGDEILVSGGIGALVRLKSLQGDKLEVSLKNNVVSVNKEPVAEPDIMATNGVVHVITNVLQPPANRPQERGDELADSALEIFKQASAFSRASQRSVRLAPVYQKLLERMKH
binding: binds
